Paper PMC12155415
Results are given in words; binding and its absence hold for the method and conditions named. For some assays here: Binding seen in cells or lysates may run through a third protein. Some entries that bind do so weakly or less than the wild type.

Chains of the proteins cited; added tags and fusions are not shown.
UniProt Q8TAQ2: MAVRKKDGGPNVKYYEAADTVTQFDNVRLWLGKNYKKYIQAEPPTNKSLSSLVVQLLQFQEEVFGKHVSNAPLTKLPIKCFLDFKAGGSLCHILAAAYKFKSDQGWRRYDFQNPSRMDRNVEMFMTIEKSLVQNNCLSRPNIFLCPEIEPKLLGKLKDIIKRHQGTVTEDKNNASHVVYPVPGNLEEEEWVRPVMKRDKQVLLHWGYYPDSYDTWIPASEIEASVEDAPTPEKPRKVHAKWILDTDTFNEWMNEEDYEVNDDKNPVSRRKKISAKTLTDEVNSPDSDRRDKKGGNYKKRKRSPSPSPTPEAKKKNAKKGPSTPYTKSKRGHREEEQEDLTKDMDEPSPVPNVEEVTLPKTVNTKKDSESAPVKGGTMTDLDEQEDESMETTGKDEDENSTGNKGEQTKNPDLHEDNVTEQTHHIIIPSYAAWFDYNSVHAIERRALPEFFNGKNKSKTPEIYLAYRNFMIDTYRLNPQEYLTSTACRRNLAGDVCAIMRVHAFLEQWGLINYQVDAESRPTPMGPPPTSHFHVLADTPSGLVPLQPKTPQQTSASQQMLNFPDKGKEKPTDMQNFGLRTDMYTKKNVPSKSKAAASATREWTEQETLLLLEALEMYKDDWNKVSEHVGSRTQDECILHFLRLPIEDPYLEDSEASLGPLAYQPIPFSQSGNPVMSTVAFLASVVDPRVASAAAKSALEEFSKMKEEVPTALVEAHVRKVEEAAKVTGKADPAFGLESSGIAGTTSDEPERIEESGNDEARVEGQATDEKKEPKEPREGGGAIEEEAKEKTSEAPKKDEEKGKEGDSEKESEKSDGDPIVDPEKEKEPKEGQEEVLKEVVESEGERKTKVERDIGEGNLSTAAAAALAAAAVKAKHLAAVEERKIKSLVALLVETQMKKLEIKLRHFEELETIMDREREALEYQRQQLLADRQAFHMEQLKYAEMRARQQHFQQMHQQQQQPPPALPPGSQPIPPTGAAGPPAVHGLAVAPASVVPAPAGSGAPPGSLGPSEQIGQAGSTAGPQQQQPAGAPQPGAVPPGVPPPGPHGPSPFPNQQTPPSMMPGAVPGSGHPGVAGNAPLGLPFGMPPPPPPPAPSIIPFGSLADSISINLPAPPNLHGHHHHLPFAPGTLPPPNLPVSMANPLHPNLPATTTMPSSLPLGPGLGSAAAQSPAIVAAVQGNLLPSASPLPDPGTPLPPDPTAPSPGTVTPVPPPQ
UniProt Q92598: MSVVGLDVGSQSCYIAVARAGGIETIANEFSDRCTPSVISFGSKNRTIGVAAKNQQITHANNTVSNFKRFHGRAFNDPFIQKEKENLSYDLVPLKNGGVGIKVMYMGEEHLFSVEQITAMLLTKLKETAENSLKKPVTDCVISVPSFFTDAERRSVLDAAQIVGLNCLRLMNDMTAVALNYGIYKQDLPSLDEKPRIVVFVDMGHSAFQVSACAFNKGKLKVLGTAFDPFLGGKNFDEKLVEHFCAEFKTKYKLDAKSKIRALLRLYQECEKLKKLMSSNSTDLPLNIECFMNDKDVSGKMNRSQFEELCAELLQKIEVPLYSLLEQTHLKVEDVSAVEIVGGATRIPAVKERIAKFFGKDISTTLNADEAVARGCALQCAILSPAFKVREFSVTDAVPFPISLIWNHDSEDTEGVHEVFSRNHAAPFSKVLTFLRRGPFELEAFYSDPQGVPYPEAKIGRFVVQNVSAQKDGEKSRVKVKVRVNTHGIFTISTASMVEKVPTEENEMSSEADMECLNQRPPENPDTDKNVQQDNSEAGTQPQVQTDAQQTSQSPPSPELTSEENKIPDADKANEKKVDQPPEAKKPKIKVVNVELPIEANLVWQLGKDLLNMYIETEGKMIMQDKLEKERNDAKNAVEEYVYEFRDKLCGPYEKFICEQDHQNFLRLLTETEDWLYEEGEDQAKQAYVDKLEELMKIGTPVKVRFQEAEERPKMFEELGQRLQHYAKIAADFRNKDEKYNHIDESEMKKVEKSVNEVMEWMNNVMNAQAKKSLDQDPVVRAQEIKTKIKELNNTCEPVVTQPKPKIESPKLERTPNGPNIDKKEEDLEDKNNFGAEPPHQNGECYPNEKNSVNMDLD
UniProt P51532: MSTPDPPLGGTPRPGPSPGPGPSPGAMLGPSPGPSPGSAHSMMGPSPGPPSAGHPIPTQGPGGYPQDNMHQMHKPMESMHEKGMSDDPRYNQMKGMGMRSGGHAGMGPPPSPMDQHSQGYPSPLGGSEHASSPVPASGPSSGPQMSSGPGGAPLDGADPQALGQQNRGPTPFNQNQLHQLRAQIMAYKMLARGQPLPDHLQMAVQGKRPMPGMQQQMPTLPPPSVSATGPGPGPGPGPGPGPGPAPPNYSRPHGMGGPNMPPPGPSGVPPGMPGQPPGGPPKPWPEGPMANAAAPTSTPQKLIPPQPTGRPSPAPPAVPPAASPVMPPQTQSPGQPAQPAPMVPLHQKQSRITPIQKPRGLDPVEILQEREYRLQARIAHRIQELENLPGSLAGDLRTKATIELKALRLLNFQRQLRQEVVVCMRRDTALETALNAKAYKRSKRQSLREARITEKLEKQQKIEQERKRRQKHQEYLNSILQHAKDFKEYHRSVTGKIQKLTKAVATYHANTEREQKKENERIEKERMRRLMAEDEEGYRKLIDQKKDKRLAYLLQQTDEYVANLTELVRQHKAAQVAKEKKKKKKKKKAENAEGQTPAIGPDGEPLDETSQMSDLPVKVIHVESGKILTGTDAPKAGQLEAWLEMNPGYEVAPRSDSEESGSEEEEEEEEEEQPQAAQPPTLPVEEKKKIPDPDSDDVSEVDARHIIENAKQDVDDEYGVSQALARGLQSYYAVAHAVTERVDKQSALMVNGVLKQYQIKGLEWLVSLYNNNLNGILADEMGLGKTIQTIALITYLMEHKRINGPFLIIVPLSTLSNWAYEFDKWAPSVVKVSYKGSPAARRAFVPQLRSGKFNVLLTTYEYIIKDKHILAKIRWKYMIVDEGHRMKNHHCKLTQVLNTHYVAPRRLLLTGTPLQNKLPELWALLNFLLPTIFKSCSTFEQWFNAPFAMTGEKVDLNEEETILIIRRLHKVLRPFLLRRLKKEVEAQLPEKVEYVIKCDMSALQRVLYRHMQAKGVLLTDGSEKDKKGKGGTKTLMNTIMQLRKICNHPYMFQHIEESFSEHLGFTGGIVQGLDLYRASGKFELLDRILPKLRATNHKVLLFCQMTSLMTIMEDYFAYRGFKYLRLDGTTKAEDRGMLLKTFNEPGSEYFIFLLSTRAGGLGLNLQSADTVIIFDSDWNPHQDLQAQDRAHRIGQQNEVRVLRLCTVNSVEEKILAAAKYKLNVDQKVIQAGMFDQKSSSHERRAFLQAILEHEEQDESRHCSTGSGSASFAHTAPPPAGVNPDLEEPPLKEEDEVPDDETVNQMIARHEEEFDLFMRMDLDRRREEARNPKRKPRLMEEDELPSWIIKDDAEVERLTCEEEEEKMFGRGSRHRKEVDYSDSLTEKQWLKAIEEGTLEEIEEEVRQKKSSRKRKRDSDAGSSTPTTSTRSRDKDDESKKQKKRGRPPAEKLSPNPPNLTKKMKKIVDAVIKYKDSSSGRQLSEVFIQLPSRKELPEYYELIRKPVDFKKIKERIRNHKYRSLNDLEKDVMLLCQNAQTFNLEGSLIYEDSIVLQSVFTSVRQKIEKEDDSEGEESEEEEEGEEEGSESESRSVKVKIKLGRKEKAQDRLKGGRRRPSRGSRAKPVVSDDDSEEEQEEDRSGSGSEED

Key:
SMARCC2-Flag [1] = target: SMARCC2-Flag (UniProt Q8TAQ2); test: co-IP; FLAG-tagged protein transiently expressed in HEK293 cells, lysate on anti-FLAG magnetic agarose beads, 2 h at 4 °C, Western blot
SMARCC2-Flag [2] = target: SMARCC2-Flag (UniProt Q8TAQ2); test: pull-down; SMARCC2-Flag from HEK 293T lysate immobilised on anti-FLAG magnetic beads, washed, then incubated with lysate of SW480 cells transfected with scramble, HSP110 or SMARCA4 siRNAs, 2 h at 4 °C; Western blot; only the target purified
[3] = target: SMARCC2/BAF170 (endogenous, SW480 cells) (human (endogenous in SW480)) (UniProt Q8TAQ2); test: proximity ligation; DuoLink PLA on fixed SW480 cells, untreated or treated with 50 µM oxaliplatin or 200 µM TMZ for 48 h, with scramble or HSP110 siRNA
HSP110-Flag = HSP110-Flag (UniProt Q92598); test: co-IP; FLAG-tagged protein transiently expressed in HEK293 cells, lysate on anti-FLAG magnetic agarose beads, 2 h at 4 °C, Western blot
SMARCA4-Flag = SMARCA4-Flag (UniProt P51532); test: pull-down; SMARCC2-Flag or SMARCA4-Flag from HEK 293T lysate immobilised on anti-FLAG magnetic beads, washed, then incubated with recombinant HSP110 for 2 h at 4 °C; Western blot; both purified
SMARCC2-Flag [4] = target: SMARCC2-Flag (UniProt Q8TAQ2); test: as above

Row | binding (SMARCC2-Flag [2]) | binding [3] | Substance | other results
1 | – | – | HSP110 (endogenous, HEK293 cells) (from UniProt Q92598 1-858) | binding (SMARCC2-Flag [1]): binds
2 | binds | binds | HSP110 (endogenous, SW480 cells) (from UniProt Q92598 1-858) | –
3 | binds | binds | SMARCA4/BRG1 (endogenous, SW480 cells) (from UniProt P51532 1-1647) | –
4 | – | – | SMARCC2 (endogenous, HEK293 cells) (from UniProt Q8TAQ2 1-1214) | binding (HSP110-Flag): binds
5 | – | – | recombinant Human Hsp105/HSP110 protein (from UniProt Q92598 1-858) | binding (SMARCA4-Flag): no binding; binding (SMARCC2-Flag [4]): binds
